Experimental findings from PMC2504490 are described below.

The chains behind the UniProt entries cited, without tags or fusion partners. Where a name states a change or a piece, a line headed by the entry shows the natural chain unless it says otherwise.
UniProt O45346: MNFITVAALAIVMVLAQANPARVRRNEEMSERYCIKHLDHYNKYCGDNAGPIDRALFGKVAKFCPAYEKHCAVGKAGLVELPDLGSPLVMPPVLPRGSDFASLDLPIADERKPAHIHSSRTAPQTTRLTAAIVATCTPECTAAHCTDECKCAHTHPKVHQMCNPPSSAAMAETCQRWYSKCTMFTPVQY
UniProt P14585: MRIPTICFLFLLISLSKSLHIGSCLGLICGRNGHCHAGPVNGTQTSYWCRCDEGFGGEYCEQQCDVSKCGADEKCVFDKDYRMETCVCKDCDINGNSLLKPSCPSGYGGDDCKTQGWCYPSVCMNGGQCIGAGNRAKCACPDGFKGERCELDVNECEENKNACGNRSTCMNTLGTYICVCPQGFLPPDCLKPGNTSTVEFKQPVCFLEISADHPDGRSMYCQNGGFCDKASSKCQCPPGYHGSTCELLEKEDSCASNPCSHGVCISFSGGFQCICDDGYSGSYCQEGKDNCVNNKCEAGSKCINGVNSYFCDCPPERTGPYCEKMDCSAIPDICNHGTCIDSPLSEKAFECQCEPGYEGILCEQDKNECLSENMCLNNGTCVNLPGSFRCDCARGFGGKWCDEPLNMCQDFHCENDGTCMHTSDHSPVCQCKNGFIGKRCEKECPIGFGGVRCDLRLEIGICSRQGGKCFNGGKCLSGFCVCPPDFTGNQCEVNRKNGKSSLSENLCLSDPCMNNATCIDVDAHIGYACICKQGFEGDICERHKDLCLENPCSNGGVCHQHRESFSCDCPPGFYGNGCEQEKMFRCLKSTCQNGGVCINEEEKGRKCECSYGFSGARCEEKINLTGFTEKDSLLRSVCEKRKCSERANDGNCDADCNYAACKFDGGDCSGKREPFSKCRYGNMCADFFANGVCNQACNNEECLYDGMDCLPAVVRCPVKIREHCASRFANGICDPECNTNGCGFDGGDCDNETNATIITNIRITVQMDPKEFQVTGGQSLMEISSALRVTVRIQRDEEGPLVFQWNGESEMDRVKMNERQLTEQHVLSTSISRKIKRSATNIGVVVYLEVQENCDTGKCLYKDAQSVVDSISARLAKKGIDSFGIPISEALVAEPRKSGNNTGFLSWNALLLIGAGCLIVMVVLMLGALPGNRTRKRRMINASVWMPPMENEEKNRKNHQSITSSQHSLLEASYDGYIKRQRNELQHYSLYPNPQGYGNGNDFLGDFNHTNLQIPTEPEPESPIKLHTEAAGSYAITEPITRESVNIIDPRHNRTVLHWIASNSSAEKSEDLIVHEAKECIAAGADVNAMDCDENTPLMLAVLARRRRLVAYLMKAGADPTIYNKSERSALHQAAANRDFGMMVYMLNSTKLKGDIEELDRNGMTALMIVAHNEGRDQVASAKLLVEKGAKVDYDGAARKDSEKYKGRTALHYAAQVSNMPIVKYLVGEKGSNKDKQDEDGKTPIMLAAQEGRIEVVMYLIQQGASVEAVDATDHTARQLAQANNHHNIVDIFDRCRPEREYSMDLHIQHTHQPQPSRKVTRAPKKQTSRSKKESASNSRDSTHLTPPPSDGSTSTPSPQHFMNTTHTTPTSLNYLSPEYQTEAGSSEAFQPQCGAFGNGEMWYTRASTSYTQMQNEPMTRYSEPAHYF

These are yes or no findings as the source states them, for the method shown. For part of these data: A result given as binding can be weak or reduced; the word gives no strength.

The target in test [1] is T1, DSL-1 (C. elegans) (UniProt O45201).
T1 sequence: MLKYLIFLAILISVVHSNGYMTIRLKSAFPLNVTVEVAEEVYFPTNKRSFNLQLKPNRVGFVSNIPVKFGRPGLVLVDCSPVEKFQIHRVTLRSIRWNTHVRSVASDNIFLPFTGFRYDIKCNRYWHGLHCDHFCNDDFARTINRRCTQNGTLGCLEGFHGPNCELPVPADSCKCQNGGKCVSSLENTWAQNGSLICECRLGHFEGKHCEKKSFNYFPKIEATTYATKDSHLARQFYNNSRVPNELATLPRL
In words: two-hybrid; yeast two-hybrid; ligands fused to the GAL4 DNA binding domain (DB), the first six LIN-12 EGF repeats fused to the GAL4 activation domain (AD); positive interactions indicated by blue staining.

The target in the next test is OSM-11 (C. elegans) (UniProt O45346). The test is described as above.
A further test deals with T2, LIN-3 (C. elegans) (UniProt Q03345).
T2 sequence: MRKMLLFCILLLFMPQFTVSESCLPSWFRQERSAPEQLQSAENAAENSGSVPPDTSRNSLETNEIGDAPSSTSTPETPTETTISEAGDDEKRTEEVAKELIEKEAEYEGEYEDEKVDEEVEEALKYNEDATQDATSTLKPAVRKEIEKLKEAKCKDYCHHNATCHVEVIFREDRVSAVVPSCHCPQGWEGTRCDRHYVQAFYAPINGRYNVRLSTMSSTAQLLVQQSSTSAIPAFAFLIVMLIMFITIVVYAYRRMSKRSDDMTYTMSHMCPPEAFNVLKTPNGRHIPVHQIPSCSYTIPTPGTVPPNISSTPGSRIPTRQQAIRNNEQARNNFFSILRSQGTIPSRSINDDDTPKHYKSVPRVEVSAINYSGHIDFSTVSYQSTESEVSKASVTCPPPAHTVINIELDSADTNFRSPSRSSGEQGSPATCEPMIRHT
The test is described as above.

In test [2] the target is T3, LAG-2 extracellular domain (C. elegans) (UniProt P45442).
T3 sequence: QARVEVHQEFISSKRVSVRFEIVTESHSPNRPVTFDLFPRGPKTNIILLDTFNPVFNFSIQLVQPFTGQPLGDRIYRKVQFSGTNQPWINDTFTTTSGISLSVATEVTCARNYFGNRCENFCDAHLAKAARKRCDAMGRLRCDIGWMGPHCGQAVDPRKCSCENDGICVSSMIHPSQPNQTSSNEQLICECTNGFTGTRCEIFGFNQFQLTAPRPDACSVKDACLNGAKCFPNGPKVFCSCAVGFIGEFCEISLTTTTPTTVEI
The description is as above.

Test [3] deals with T1, DSL-1 (C. elegans). In words: two-hybrid; yeast two-hybrid of OSM-11 against DSL-1 or LAG-2; which partner was fused to DB and which to AD is not told.
Test [4] concerns the target T3, LAG-2 extracellular domain (C. elegans). The description is as above.

As for “LIN-12 extracellular EGF repeats 1 through 6 (from UniProt P14585) (domain or fragment)”, the binding result with DSL-1 (C. elegans) [1] was “binds”; with OSM-11 (C. elegans), “binds”; with LIN-3 (C. elegans) it was “no binding”; in test [2], “binds”.

With OSM-11 (from UniProt O45346) (ligand), the binding entry (with DSL-1 (C. elegans) [3]; in test [4]) was “no binding” each time.
